Test results as given in the supplement of paper PMC10849652.
Some of the results follow.

Chains of the proteins cited; added tags and fusions are not shown. Lines headed by an entry give the natural chain unless they say otherwise; changes in a name come on top.
UniProt Q86SX6: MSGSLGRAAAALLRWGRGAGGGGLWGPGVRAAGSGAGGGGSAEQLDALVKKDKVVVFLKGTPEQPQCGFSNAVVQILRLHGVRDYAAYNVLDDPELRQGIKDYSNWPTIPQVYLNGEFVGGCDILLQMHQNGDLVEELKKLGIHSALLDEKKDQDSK
UniProt P36915, whole entry, looked up: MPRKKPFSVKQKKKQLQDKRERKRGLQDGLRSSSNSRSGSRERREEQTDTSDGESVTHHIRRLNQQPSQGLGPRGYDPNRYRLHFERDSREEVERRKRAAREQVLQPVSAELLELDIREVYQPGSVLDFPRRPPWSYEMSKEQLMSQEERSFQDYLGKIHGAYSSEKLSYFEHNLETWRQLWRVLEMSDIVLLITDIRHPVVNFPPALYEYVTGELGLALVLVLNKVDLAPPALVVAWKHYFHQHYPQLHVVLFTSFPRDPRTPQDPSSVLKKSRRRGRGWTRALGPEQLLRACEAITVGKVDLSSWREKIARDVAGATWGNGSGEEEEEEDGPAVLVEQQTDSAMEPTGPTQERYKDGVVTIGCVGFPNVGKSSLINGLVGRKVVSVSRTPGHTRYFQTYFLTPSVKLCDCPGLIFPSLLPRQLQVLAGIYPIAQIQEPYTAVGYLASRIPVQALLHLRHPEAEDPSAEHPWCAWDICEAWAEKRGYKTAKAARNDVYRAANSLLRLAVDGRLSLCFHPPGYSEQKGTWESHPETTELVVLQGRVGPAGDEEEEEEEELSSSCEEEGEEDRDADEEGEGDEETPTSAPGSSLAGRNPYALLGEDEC
UniProt P06280: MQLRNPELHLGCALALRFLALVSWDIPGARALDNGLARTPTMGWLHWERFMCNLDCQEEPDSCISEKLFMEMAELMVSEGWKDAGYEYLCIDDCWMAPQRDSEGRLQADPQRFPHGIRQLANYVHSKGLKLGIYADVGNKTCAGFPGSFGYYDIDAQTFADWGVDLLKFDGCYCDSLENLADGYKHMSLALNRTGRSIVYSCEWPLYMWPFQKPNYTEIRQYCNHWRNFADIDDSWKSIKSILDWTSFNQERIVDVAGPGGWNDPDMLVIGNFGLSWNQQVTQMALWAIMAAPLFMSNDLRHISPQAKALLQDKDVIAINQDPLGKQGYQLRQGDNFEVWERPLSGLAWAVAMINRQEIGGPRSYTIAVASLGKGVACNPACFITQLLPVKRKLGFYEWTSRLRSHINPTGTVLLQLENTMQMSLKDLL
UniProt P17174: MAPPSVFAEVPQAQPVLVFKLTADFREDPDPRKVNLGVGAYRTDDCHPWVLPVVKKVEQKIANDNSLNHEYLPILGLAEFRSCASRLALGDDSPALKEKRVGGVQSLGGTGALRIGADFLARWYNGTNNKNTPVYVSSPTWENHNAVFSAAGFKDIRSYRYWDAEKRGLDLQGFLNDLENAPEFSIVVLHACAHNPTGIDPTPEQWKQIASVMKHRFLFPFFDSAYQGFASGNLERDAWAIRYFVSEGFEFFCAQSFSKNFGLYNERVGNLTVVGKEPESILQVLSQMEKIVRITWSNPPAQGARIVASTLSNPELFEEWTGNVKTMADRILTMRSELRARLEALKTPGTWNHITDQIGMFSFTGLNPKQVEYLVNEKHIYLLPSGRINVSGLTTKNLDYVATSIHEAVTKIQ
UniProt Q7Z2K8: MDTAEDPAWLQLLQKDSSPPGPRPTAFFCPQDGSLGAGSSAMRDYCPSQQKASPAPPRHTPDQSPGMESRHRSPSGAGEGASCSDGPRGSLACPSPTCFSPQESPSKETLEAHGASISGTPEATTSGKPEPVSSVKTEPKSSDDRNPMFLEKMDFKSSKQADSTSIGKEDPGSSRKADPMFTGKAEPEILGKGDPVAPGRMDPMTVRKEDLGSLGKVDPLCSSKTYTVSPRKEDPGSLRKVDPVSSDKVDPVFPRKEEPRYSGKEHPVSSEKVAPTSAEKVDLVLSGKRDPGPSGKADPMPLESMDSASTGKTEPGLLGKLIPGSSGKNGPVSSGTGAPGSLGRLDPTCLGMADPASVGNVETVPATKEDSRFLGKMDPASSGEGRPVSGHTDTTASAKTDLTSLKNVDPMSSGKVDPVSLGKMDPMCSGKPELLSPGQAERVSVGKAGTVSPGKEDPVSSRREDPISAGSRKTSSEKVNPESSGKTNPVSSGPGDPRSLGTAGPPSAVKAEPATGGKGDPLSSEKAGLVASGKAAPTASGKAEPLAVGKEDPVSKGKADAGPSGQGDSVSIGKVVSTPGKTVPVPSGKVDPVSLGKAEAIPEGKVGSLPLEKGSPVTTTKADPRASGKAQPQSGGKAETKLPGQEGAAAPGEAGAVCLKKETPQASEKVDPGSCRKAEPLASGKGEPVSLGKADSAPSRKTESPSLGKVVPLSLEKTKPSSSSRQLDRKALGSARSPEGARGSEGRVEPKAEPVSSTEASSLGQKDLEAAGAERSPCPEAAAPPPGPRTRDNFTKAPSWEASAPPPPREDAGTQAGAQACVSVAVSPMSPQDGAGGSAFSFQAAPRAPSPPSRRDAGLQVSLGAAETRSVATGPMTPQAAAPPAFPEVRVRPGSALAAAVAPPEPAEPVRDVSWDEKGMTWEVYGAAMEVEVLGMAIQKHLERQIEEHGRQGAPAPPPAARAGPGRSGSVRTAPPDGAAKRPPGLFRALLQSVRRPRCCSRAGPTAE
UniProt Q9HAV7: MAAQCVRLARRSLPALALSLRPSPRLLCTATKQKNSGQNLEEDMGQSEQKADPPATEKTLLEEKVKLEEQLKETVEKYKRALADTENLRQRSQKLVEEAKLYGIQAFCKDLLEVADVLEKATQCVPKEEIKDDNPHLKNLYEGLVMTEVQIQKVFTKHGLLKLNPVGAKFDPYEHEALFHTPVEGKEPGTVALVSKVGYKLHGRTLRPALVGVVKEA
UniProt O75791: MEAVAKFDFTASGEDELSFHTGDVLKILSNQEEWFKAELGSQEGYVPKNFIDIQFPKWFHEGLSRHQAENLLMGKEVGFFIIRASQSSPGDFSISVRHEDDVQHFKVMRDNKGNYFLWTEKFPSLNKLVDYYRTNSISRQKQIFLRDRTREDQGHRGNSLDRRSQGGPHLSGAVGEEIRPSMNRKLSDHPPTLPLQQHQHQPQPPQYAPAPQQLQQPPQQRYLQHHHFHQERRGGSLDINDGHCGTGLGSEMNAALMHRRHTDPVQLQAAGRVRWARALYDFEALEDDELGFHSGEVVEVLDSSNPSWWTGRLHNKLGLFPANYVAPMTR
UniProt P28799: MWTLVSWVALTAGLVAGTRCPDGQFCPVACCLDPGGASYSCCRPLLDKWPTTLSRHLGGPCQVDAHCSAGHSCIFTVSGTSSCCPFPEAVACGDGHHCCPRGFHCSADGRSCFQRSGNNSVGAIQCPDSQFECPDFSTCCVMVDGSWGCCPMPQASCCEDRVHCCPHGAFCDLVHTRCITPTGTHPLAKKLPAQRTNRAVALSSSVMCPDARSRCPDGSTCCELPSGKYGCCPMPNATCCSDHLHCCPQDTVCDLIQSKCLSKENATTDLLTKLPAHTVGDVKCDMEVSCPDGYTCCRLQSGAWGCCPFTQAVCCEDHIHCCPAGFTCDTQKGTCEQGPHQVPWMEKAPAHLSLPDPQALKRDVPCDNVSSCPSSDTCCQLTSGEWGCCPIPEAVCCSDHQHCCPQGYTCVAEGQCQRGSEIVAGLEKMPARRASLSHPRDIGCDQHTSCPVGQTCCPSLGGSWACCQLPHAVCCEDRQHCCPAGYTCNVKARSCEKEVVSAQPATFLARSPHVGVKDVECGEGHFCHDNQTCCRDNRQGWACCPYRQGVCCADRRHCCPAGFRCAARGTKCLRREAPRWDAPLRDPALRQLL
UniProt Q5JWF2, whole entry, looked up: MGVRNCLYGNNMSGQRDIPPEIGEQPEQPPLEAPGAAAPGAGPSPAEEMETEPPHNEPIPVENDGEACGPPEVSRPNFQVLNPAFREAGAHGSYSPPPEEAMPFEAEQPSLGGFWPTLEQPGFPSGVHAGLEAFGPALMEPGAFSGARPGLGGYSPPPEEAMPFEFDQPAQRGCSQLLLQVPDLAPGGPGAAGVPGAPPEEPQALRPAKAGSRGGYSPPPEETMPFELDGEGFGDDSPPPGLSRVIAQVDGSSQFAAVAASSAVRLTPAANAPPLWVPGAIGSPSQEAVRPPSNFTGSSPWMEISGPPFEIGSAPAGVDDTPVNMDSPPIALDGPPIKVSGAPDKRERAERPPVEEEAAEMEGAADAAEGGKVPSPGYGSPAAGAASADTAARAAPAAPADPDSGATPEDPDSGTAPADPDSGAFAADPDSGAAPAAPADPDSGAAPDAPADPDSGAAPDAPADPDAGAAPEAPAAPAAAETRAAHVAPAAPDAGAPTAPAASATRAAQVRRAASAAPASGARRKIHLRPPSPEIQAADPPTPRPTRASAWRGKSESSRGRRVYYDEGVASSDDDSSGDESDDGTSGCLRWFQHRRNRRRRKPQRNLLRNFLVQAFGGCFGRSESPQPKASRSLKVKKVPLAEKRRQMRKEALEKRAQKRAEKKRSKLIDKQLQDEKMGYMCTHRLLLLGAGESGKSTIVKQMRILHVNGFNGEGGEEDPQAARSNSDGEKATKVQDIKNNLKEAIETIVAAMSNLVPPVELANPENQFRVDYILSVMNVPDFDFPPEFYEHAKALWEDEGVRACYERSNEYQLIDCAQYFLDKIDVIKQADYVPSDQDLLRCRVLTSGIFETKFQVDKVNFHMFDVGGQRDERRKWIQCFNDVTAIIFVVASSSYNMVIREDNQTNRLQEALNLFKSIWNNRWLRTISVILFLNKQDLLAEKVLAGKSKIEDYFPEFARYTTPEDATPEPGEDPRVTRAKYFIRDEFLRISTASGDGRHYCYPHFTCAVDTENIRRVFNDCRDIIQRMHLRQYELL
UniProt Q9H9Y4: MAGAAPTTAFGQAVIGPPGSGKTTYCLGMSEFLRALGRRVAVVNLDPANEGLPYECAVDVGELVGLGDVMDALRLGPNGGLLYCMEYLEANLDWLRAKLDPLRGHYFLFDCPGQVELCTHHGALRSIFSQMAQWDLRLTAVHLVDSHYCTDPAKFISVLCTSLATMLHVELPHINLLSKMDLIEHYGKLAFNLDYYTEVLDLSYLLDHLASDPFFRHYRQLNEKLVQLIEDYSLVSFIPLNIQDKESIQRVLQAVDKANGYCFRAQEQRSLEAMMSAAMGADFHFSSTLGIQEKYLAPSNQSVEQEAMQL
UniProt P46926: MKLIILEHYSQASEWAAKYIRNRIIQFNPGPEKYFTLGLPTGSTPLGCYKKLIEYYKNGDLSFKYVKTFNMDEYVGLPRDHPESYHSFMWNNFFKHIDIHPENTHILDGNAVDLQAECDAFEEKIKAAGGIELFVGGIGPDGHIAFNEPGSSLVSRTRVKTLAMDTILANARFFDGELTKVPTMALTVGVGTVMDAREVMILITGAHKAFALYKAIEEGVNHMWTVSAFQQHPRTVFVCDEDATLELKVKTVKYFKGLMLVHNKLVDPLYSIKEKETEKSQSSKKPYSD
UniProt O00461: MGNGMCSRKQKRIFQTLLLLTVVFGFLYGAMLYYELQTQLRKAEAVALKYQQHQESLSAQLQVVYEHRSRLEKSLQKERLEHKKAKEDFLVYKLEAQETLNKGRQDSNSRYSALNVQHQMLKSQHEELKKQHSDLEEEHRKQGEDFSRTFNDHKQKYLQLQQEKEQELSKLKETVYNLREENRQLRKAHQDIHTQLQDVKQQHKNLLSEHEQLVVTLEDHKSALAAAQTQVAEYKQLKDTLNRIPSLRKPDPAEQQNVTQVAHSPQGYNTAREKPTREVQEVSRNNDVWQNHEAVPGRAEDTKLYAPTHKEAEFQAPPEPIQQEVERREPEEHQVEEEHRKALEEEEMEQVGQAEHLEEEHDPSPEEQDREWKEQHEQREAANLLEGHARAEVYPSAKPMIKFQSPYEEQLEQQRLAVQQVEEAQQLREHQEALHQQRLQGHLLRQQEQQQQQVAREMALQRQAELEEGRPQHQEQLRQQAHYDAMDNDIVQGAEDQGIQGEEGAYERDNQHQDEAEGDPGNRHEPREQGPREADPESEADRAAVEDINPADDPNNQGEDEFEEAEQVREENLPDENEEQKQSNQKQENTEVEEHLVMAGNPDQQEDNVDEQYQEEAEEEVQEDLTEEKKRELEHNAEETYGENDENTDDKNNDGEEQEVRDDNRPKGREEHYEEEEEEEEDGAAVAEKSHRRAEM
UniProt Q03113, whole entry, looked up: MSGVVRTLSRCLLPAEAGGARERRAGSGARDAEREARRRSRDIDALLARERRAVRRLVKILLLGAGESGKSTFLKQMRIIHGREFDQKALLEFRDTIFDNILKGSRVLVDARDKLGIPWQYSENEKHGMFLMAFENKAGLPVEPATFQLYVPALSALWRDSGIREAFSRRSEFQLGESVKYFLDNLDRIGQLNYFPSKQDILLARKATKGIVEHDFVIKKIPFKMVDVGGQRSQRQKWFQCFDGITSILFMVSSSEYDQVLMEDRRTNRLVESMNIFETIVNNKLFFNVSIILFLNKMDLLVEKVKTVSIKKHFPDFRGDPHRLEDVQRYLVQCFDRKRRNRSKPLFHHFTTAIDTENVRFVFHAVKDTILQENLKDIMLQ

Assays:
Assay in all cases: log2 fold change, soluble protein after heating vs DMSO (PISA); higher = thermal stabilisation; K562 cells, 10 uM, 30 min; active = over 0.2 and 3.5 SD of the protein, either way, in both replicates (recomputed)
erlotinib = compound: C#Cc1cccc(Nc2ncnc3cc(OCCOC)c(OCCOC)cc23)c1 [erlotinib]
Summary of the method: (§1)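 K562 cells at 2×10^6 cells/mL were treated with 10 μM compound for 30 min. Aliquots were heated for 3 min across 48°C-58°C, pooled, and extracted in PBS with 0.5% NP-40 at 4°C; soluble protein was the supernatant after 21,000xg for 90 min. Soluble protein was quantified by TMTpro 16plex LC-MS/MS with channel sums equalised, and reported as log2 fold change in thermal stability against DMSO controls, with values from duplicates.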

[1] = compound: C/C(=N\NC(=O)C1=CC(=CC=C1)S(=O)(=O)N2CCOCC2)/C3=C(C=CC(=C3)Cl)O
Summary of the method: as §1

[2] = compound: C1=CC(=C(C=C1Cl)C2=NC3=NC=CN=C3C(=N2)NC4=CC=NC=C4)F
Summary of the method: as §1

[3] = compound: C1=CC(=CC=C1C2=NC3=C(N2)C=C(C=C3)C(=O)N)OC4=CC=C(C=C4)Cl
Summary of the method: as §1

[4] = compound: C1=CC2=C(C=CC(=C2)/C=C\3/C(=O)NC(=NCC4=CC=CS4)S3)N=C1
Summary of the method: as §1

[5] = compound: C1=CC2=NC=CN=C2C=C1/C=C/3\C(=O)NC(=O)S3
Summary of the method: as §1

[6] = compound: C1=CC=C(C=C1)C2=NC(=C(N2)C3=CC=NC=C3)C4=CC(=C(C=C4)Cl)O
Summary of the method: as §1

[7] = compound: C1=CC=C2C(=C1)C3=NNC4=CC=CC(=C43)C2=O
Summary of the method: as §1

[8] = compound: C1CCN(C1)C(=O)NC2=CC=CC(=C2)NC3=NC=C(C(=N3)NCCC4=CN=CN4)Br
Summary of the method: as §1

[9] = compound: C1CN(CCC1(CC2=CC=C(C=C2)Cl)N)C3=NC=NC4=C3C=CN4
Summary of the method: as §1

Measured: log2 fold change

GLRX5 (UniProt Q86SX6)
inactive: erlotinib -0.038 | [1] -0.078 | [2] 0.059 | [3] 0.026 | [4] 0.047 | [5] 0.002 | [6] -0.016 | [7] 0.129 | [8] -0.083 | [9] 0

GPAT3 (UniProt Q53EU6)
inactive: erlotinib -0.048 | [1] 0.147 | [2] -0.085 | [3] 0.028 | [4] 0 | [5] 0.057 | [6] -0.001 | [7] -0.038 | [8] 0.011 | [9] 0.053

GPD1 (UniProt P21695)
inactive: erlotinib 0.55 | [1] -0.084 | [2] -0.075 | [3] -0.305 | [4] 0.129 | [5] -0.149 | [6] -0.003 | [7] -0.047 | [8] -0.043 | [9] 0.032

GPN1 isoform 5 (UniProt Q9HCN4)
inactive: erlotinib -0.031 | [1] 0.019 | [2] 0.033 | [3] 0.025 | [4] 0.031 | [5] -0.032 | [6] -0.005 | [7] 0.019 | [8] -0.051 | [9] 0.03

GPN3 isoform 2 (UniProt Q9UHW5)
inactive: erlotinib 0.022 | [1] 0.009 | [2] 0.022 | [3] -0.039 | [4] -0.135 | [5] 0.011 | [6] -0.011 | [7] 0.002 | [8] 0.027 | [9] 0.119

GOPC (UniProt Q9HD26)
inactive: erlotinib 0.016 | [1] 0.051 | [2] -0.284 | [3] -0.178 | [4] -0.027 | [5] -0.147 | [6] -0.008 | [7] 0.265 | [8] -0.036 | [9] 0.06

GRIPAP1 (UniProt Q4V328)
inactive: erlotinib -0.013 | [1] 0.037 | [2] -0.028 | [3] 0.014 | [4] -0.045 | [5] 0.087 | [6] -0.02 | [7] -0.046 | [8] -0.01 | [9] -0.11

GNL1 (UniProt P36915)
inactive: erlotinib 0.044 | [1] 0.046 | [2] 0.048 | [3] -0.028 | [4] 0.037 | [5] -0.004 | [6] 0.074 | [7] 0 | [8] 0.035 | [9] -0.055

GLA (UniProt P06280)
inactive: erlotinib 0.016 | [1] 0.019 | [2] -0.018 | [3] -0.021 | [4] -0.018 | [5] -0.017 | [6] -0.034 | [7] -0.032 | [8] 0.026 | [9] 0.045

GOT1 (UniProt P17174)
inactive: erlotinib 0.004 | [1] -0.016 | [2] -0.016 | [3] -0.024 | [4] -0.002 | [5] -0.005 | [6] -0.012 | [7] 0.017 | [8] 0.002 | [9] 0.041

GPR89A (UniProt B7ZAQ6)
inactive: erlotinib -0.147 | [1] 0.048 | [2] 0.088 | [3] 0.058 | [4] 0.02 | [5] 0.012 | [6] -0.018 | [7] -0.036 | [8] -0.071 | [9] 0.02

GLRX3 (UniProt O76003)
inactive: erlotinib -0.031 | [1] 0.024 | [2] 0.052 | [3] -0.037 | [4] 0.011 | [5] 0.006 | [6] 0.031 | [7] -0.001 | [8] 0.003 | [9] -0.015

GOLGA4 isoform 5 (UniProt Q13439)
inactive: erlotinib 0.275 | [1] -0.04 | [2] -0.117 | [3] -0.031 | [4] 0.161 | [5] 0.003 | [6] -0.075 | [7] 0.002 | [8] 0.045 | [9] -0.114

GPRIN1 (UniProt Q7Z2K8)
inactive: erlotinib 0.048 | [1] -0.054 | [2] 0.014 | [3] 0.01 | [4] 0.022 | [5] 0.032 | [6] -0.006 | [7] -0.078 | [8] -0.041 | [9] 0.044

GPAA1 (UniProt O43292)
inactive: erlotinib -0.075 | [1] 0.026 | [2] 0.026 | [3] 0.01 | [4] 0.011 | [5] 0.013 | [6] -0.001 | [7] -0.015 | [8] -0.009 | [9] 0.049

GMFB (UniProt P60983)
inactive: erlotinib 0.016 | [1] 0.044 | [2] 0.063 | [3] -0.003 | [4] 0.004 | [5] -0.015 | [6] 0.041 | [7] -0.004 | [8] -0.023 | [9] 0.014

GRPEL1 (UniProt Q9HAV7)
inactive: erlotinib -0.016 | [1] 0.008 | [2] 0.035 | [3] -0.012 | [4] 0.012 | [5] -0.002 | [6] -0.002 | [7] -0.002 | [8] 0.018 | [9] 0.005

GRAP2 (UniProt O75791)
inactive: erlotinib 0.012 | [1] 0.017 | [2] -0.084 | [3] -0.062 | [4] 0.232 | [5] 0.281 | [6] 0.037 | [7] 0.018 | [8] -0.078 | [9] 0.033

GRN (UniProt P28799)
inactive: erlotinib 0.04 | [1] 0.014 | [2] -0.093 | [3] -0.15 | [4] 0.034 | [5] 0.017 | [6] -0.086 | [7] -0.211 | [8] 0.024 | [9] -0.049

GOLPH3 (UniProt Q9H4A6)
inactive: erlotinib 0.008 | [1] 0.073 | [2] 0.104 | [3] -0.014 | [4] 0.011 | [5] 0.008 | [6] 0.051 | [7] -0.007 | [8] -0.101 | [9] 0.043

GNAS (UniProt Q5JWF2)
inactive: erlotinib 0.001 | [1] 0.042 | [2] -0.032 | [3] 0.043 | [4] 0.026 | [5] 0.021 | [6] 0.02 | [7] 0.011 | [8] -0.011 | [9] 0.043

GPN2 (UniProt Q9H9Y4)
inactive: erlotinib -0.039 | [1] -0.085 | [3] 0.109 | [4] 0.017 | [5] 0.064 | [6] -0.058 | [7] 0.004 | [8] 0.004 | [9] 0.05

GNPDA1 (UniProt P46926)
inactive: erlotinib -0.007 | [1] 0.02 | [2] 0.02 | [3] 0 | [4] -0.009 | [5] 0.024 | [6] -0.055 | [7] -0.019 | [8] 0.017 | [9] 0.072

GOLGA7B (UniProt Q2TAP0)
inactive: erlotinib -0.105 | [1] 0.024 | [3] 0.057 | [4] -0.026 | [5] 0.07 | [6] -0.063 | [7] -0.03 | [8] -0.168 | [9] 0.109

GOLIM4 (UniProt O00461)
inactive: erlotinib 0.033 | [1] 0.01 | [2] -0.006 | [3] 0.001 | [4] 0.047 | [5] 0.01 | [6] -0.012 | [7] 0.022 | [8] -0.007 | [9] 0.001

GLUL (UniProt P15104)
inactive: erlotinib -0.058 | [1] 0.016 | [2] 0.027 | [3] 0.022 | [4] -0.006 | [5] -0.003 | [6] -0.007 | [7] -0.045 | [8] -0.037 | [9] 0.017

GLB1L2 (UniProt Q8IW92)
inactive: erlotinib -0.039 | [1] -0.071 | [2] -0.026 | [3] -0.015 | [4] 0.04 | [5] -0.028 | [6] 0.061 | [7] 0.008 | [8] 0.003 | [9] 0.078

GNAI3 (UniProt P08754)
inactive: erlotinib -0.078 | [1] -0.038 | [2] -0.01 | [3] 0.205 | [4] 0.021 | [5] 0 | [6] 0.036 | [7] -0.026 | [8] -0.047 | [9] 0.026

GNA12 (UniProt Q03113)
inactive: erlotinib 0.173 | [1] -0.157 | [2] 0.029 | [3] 0.046 | [4] 0.282 | [5] 0.052 | [7] 0 | [8] 0.183 | [9] 0.072

GORASP2 isoform 3 (UniProt Q9H8Y8)
inactive: erlotinib 0 | [1] 0.21 | [2] -0.021 | [3] -0.146 | [4] -0.11 | [5] 0.013 | [6] -0.023 | [7] 0.136 | [8] 0.009 | [9] -0.114
